PubChem BioAssay AID652272 | Drosophila RNAi Screening Center, 2013
In all, the deposit lists about 21,000 reagents; shown is an unselected part of those with a known target gene and a result. Of all reagents, 503 (2.4%) are marked active. 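Raw plate light values, not normalised; calls rest on replicate z-scores that were not deposited; hits include reporter decreases as well as increases.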 Entries without a mark were called inactive. A plus sign joins genes that one reagent is predicted to hit. The record does not give: the amount of reagent, the time to read-out.

Purpose: 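Finding fly genes that regulate Hedgehog signal transduction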 (primary screen)
Cells: Drosophila clone 8 (Cl8) cells
Knock-down reagent: long dsRNA against Drosophila genes
Measured: 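Plate reader light from a firefly reporter under a ptc promoter fragment that responds to Hedgehog, with Renilla light as transfection reference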
Scale: firefly Hh reporter signal: higher = more ptc reporter light; Renilla reference signal: higher = more Renilla control light
Hit rule: 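Hit when the z-score averaged over two replicates is under -2 or over +3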
Calls: active = hit: reporter lowered or raised; inactive = not a hit

The opening 4 records as a preview:
| Target gene | dsRNA | firefly Hh reporter signal, replicate 1 | firefly Hh reporter signal, replicate 2 | firefly Hh reporter signal, replicate 3 | Renilla reference signal, replicate 1 | Renilla reference signal, replicate 2 |
| --- | --- | --- | --- | --- | --- | --- |
| CG8611 | DRSC19340 | 67891 | 80889 | – | 1600 | 2160 |
| CG10254 | DRSC14153 | 76963 | 86280 | – | 2994 | 3041 |
| CG6340 | DRSC19987 | 72397 | 5.11e5 | 1.95e5 | 2020 | 3691 |
| CG6569 | DRSC16067 | 7.67e5 | 1.55e5 | – | 33680 | 1978 |

Main list, repeating the preview:
| Target gene | dsRNA | firefly Hh reporter signal, replicate 1 | firefly Hh reporter signal, replicate 2 | firefly Hh reporter signal, replicate 3 | Renilla reference signal, replicate 1 | Renilla reference signal, replicate 2 |
| --- | --- | --- | --- | --- | --- | --- |
| CG8611 | DRSC19340 | 67891 | 80889 | – | 1600 | 2160 |
| CG10254 | DRSC14153 | 76963 | 86280 | – | 2994 | 3041 |
| CG6340 | DRSC19987 | 72397 | 5.11e5 | 1.95e5 | 2020 | 3691 |
| CG6569 | DRSC16067 | 7.67e5 | 1.55e5 | – | 33680 | 1978 |
| mRpS31 | DRSC10556 | 1.15e5 | 64651 | – | 3409 | 2104 |
| CG18335 | DRSC06723 | 65640 | 44401 | – | 1504 | 3088 |
| CG43146 (retired record) | DRSC09254 | 2.75e5 | – | – | 6477 | – |
| CG4036 | DRSC02735 | 89732 | 62459 | – | 3602 | 2745 |
| CG3663 | DRSC04402 | 1.32e5 | 92300 | – | 5163 | 3549 |
| CG6726 | DRSC16101 | 4.55e5 | 75476 | – | 22901 | 2408 |
| CG6414 | DRSC18401 | 71568 | 1.75e5 | – | 2519 | 6003 |
| CG5823 | DRSC15881 | 1.04e5 | 97731 | – | 4380 | 4230 |
| Or45b | DRSC07488 | 1.09e5 | 70297 | – | 2688 | 5605 |
| CG5888 | DRSC01929 | 64171 | 28850 | – | 2323 | 1154 |
| Son | DRSC16400 | 93059 | 1.09e5 | – | 3270 | 2540 |
| Ptp69D | DRSC11258 | 20848 | 67657 | 74860 | 7121 | 5584 |
| sing | DRSC19530 | 72530 | 1.33e5 | – | 2307 | 5723 |
| Nha2 + asRNA:CR43454 | DRSC13594 | 53962 | 1.95e5 | – | 10167 | 3858 |
| CG17618 (retired record) + CG45049 | DRSC16163 | 7.37e5 | 1.31e5 | – | 34580 | 3860 |
| shep | DRSC08748 | 62304 | 1.15e5 | – | 1777 | 5658 |
| shep | DRSC09765 | 51788 | 1.01e5 | – | 5611 | 5868 |
| shep | DRSC09771 | 1.80e5 | 1.11e5 | – | 7266 | 4390 |
| dbf | DRSC02570 | 1.35e5 | 45891 | – | 2793 | 4705 |
| CG7970 | DRSC08605 | 1.46e5 | 89801 | – | 5411 | 3177 |
| CG43342 | DRSC13561 | 65216 | 1.65e5 | – | 13505 | 3623 |
| Kul | DRSC15404 | 66816 | 86107 | – | 1891 | 2695 |
| CG13312 | DRSC09983 | 59648 | 78226 | – | 7149 | 4565 |
| Cirl | DRSC07227 | 36337 | 31857 | – | 2312 | 1344 |
| CG13847 | DRSC14697 | 43930 (active) | 30413 | – | 2491 | 1730 |
| mRpS11 | DRSC15732 | 1.04e5 | 94520 | – | 1965 | 2523 |
| CG33235 | DRSC19641 | 1.04e5 | 3.67e5 | – | 3474 | 13632 |
| eIF3f2 | DRSC04903 | 1.05e5 | 49722 | – | 1888 | 4827 |
| CR32733 | DRSC17481 | 4.33e5 | 1.43e5 | – | 24948 | 2613 |
| lbe | DRSC16985 | 5.07e5 | 1.73e5 | – | 26552 | 3223 |
| CG7924 | DRSC10931 | 93920 | 61707 | – | 3387 | 2597 |
| CR46300 | DRSC12467 | 1.80e5 | – | – | 2775 | – |
| CG15212 | DRSC10212 | 53312 | 27130 | – | 7832 | 3085 |
| CG10555 | DRSC17748 | 74388 | 2.73e5 | – | 2640 | 8640 |
| bbx + waw | DRSC20575 | 89088 | 1.08e5 | – | 2125 | 2810 |
| bbx + waw | DRSC20589 | 71025 | 2.18e5 | – | 1899 | 8530 |
